According to article PMC6572854, “Convergent allostery in ribonucleotide reductase” (Nature Communications, 2019):
No constants are given. Whether binding was seen depends on the method and setting. Where a sequence is shown, tags or fusion partners need not be part of it.

Target: Bacillus subtilis class Ib ribonucleotide reductase NrdE (α subunit), wild type, tagless (Bacillus subtilis) (UniProt P50620)
Assay: condition: only with 1 mM ATP (40 µM holo-NrdE loaded); SEC-SAXS; 40 µM wt holo-NrdE loaded, 1 mM ATP, 0.5 mM CDP, assay buffer with 1% glycerol, 4 °C, evolving factor analysis; both purified

binding: no binding
B1: Bacillus subtilis class Ib ribonucleotide reductase NrdE (α subunit), wild type, tagless (enzyme)
chain: MSQNQVPKWIQLNNEIMIQKDGKFQFDKDKEAVHSYFVDYINQNTVFFHNLKEKLDYLVENQYYEEEFLSLYSFEDIKEVFKTAYAKKFRFPSFMSAFKFYNDYALKTNDKKKILERYEDRISIVALFFANGDTEKAKEYVNLMINQEYQPSTPTFLNAGRKRRGELVSCFLLEVNDSLNDISRAIDISMQLSKLGGGVSLNLSKLRAKGEAIKDVENATKGVVGVMKLLDNAFRYADQMGQRQGSGAAYLNIFHRDINDFLDTKKISADEDVRVKTLSIGVVIPDKFVELAREDKAAYVFYPHTIYKEYGQHMDEMDMNEMYDKFVDNPRVKKEKINPRKLLEKLAMLRSESGYPYIMFQDNVNKVHANNHISKVKFSNLCSEVLQASQVSSYTDYDEEDEIGLDISCNLGSLNILNVMEHKSIEKTVKLATDSLTHVSETTDIRNAPAVRRANKAMKSIGLGAMNLHGYLAQNGIAYESPEARDFANTFFMMVNFYSIQRSAEIAKEKGETFDQYEGSTYATGEYFDKYVSTDFSPKYEKIANLFEGMHIPTTEDWKKLKAFVAEHGMYHSYRLCIAPTGSISYVQSSTASVMPIMERIEERTYGNSKTYYPMPGLASNNWFFYKEAYDMDMFKVVDMIATIQQHIDQGISFTLFLKDTMTTRDLNRIDLYAHHRGIKTIYYARTKDTGQDSCLSCVV
notes: NrdE, α subunit of the class Ib ribonucleotide reductase of Bacillus subtilis; holo-NrdE carries the co-purified dAMP ligand, apo-NrdE is nucleotide-free; same polypeptide; also called wt apo-NrdE (dAMP-free)
